In publication PMC5225067:
No constants are given. Whether binding was seen depends on the method and setting. Some results given as binding are weak or reduced against the parent protein; the word gives no strength. Where a sequence is shown, tags or fusion partners need not be part of it.

Experiments:
Assay in all cases: two-hybrid; Gal4 system in mated PJ69-4 cells; quantitative GAL4 promoter-directed β-galactosidase expression; measured at 25 °C and 39 °C (heat stress); control: pBDC fusion with empty pADC
[1] = biological target: T1, She4-BD S18A (S. cerevisiae) (UniProt P51534)
T1 sequence: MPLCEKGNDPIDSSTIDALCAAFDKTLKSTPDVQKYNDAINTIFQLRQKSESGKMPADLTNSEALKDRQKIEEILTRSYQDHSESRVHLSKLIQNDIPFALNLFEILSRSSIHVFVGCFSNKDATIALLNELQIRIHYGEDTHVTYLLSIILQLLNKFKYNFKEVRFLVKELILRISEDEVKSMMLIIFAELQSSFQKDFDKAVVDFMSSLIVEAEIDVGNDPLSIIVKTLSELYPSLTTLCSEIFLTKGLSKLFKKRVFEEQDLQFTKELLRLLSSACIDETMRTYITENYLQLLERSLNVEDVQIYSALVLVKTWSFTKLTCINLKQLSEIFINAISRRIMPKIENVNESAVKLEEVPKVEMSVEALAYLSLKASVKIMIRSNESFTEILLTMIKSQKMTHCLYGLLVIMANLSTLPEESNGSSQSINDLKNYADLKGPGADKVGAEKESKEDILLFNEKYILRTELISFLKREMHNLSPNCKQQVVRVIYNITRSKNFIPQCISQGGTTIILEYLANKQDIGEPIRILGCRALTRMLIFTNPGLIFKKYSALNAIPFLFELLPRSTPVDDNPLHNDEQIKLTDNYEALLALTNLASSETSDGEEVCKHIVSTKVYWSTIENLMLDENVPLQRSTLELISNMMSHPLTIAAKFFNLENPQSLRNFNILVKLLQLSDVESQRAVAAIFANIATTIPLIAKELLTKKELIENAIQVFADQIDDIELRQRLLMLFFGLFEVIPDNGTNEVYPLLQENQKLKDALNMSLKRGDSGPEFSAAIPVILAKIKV

[2] = biological target: T2, human BD-UNC45-SM (S251E) (human) (UniProt Q8IWX7)
T2 sequence: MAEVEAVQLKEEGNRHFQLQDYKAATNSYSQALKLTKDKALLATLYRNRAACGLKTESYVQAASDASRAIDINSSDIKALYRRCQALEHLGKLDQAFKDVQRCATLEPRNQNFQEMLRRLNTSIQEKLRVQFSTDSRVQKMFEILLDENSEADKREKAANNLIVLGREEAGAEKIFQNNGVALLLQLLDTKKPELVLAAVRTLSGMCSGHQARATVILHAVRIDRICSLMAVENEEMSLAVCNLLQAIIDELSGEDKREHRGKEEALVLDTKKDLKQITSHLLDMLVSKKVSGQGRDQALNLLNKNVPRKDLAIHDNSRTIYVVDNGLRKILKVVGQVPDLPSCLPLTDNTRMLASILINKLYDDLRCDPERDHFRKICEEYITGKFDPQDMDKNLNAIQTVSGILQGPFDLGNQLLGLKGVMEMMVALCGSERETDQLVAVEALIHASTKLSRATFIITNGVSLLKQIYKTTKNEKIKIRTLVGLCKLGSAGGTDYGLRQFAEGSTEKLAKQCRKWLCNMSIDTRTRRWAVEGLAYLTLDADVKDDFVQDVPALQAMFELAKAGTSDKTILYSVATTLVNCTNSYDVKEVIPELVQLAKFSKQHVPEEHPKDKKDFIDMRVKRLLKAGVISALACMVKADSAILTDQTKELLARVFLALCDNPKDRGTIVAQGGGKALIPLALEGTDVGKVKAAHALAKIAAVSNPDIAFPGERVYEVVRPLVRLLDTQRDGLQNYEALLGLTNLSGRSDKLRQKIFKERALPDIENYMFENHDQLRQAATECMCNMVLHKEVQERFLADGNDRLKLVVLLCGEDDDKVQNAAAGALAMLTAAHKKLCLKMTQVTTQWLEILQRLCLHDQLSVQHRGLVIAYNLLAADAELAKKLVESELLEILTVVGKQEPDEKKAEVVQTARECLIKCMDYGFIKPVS

[3] = biological target: T3, human BD-UNC45-SM, wild type (human) (UniProt Q8IWX7)
T3 sequence: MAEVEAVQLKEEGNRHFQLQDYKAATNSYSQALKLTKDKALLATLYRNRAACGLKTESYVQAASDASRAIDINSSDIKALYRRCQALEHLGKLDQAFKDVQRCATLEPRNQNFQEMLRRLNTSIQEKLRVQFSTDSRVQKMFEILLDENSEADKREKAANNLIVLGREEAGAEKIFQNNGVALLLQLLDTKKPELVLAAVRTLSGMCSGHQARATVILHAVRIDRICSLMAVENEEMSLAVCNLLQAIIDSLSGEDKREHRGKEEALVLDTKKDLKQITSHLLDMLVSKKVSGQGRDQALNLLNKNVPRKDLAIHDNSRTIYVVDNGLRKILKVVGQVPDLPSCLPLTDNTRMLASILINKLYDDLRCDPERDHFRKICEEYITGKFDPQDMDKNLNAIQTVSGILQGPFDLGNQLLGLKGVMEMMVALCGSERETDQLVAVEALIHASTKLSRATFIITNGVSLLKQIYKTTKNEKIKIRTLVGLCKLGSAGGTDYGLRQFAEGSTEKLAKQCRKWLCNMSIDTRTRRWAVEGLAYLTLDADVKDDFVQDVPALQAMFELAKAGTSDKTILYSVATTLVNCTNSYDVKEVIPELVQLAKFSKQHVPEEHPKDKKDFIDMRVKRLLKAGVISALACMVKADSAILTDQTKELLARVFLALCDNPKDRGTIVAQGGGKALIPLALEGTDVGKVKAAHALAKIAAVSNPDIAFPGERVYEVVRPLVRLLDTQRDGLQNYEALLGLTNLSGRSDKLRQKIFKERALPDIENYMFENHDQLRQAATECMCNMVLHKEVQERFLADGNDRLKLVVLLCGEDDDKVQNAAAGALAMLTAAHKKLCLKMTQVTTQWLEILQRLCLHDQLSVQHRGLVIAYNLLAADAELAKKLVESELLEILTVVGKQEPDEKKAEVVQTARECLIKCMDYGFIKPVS

binding [1]: binds | binding [2]: binds | binding [3]: binds
B1: AD-Myo5 (protein, UniProt Q04439 1-1219)
chain: MAILKRGARKKVHQEPAKRSANIKKATFDSSKKKEVGVSDLTLLSKISDEAINENLKKRFLNATIYTYIGHVLISVNPFRDLGIYTDAVMNEYKGKNRLEVPPHVFAIAESMYYNMKSYNENQCVIISGESGAGKTEAAKRIMQYIAAASSTHTESIGKIKDMVLATNPLLESFGCAKTLRNNNSSRHGKYLEIKFNNQFEPCAGNITNYLLEKQRVVSQIKNERNFHIFYQFTKGASDAYRQTFGVQKPEQYVYTAAAGCISAETIDDLQDYQETLKAMRVIGLGQEEQDQIFRMLAAILWIGNVSFIENEEGNAQVRDTSVTDFVAYLLQIDSQLLIKSLVERIMETNHGMKRGSVYHVPLNIVQADAVRDALAKAIYNNLFDWIVSRVNKSLQAFPGAEKSIGILDIYGFEIFEHNSFEQICINYVNEKLQQIFIQLTLKSEQETYEREKIQWTPIKYFDNKVVCDLIEARRPPGIFAAMNDSVATAHADSNAADQAFAQRLNLFTTNPHFDLRSNKFVIKHYAGDVTYDIDGITDKNKDQLQKDLVELIGTTTNTFLATIFPDTVDRESKRRPPTAGDKIIKSANDLVETLSKAQPSYIRTIKPNETKSPNDYDDRQVLHQIKYLGLQENVRIRRAGFAYRQVFEKFVERFYLLSPHCSYAGDYTWQGDTLDAVKYILQDSSIPQQEYQLGVTSVFIKTPETLFALEHMRDRYWHNMAARIQRAWRRFLQRRIDAATKIQRTIRERKEGNKYEKLRDYGTKVLGGRKERRSMSLLGYRAFMGDYLSCNESKSKGAYIKRQVSIKEKVIFSIHGEALHTKFGRSAQRLKKTFLLTPTTLYIVGQTLVQNAMTYTQDYKIDVRNIQAVSLTNLQDDWVAIKLASSGQPDPLINTYFKTELITHLKRLNDKIQIKIGSAIEYQKKPGKLHSVKCQINESAPKYGDIYKSSTISVRRGNPPNSQVHKKPRKKSSISSGYHASSSQATRRPVSIAAAQHVPTAPASRHSKKPAPPPPGMQNKAATRRSVPNPASTLTASQSNARPSPPTAATRATPAATPAAAAMGSGRQANIPPPPPPPPPSSKPKEPMFEAAYDFPGSGSPSELPLKKGDVIYITREEPSGWSLGKLLDGSKEGWVPTAYMKPHSGNNNIPTPPQNRDVPKPVLNSVQHDNTSANVIPAAAQASLGDGLANALAARANKMRLESDDEEANEDEEEDDW
